In experiment [1] the target is EGFR (human (endogenous in MDA-MB-468)) (UniProt P00533). The experiment in a line: proximity ligation; MDA-MB-468 cells, serum starved (basal), mock treated without EGF, DMSO carrier or SHP099 (10 µM) for 2 hr; fixed, mouse anti-EGFR and rabbit anti-GAB1, DuoLink PLA.
For experiment [2] the target is unchanged. The experiment in a line: proximity ligation; MDA-MB-468 cells, serum starved 24 hr, DMSO carrier or SHP099 (10 µM) for 2 hr, then 1 nM EGF for 2 min; fixed, mouse anti-EGFR and rabbit anti-GAB1, DuoLink PLA, confocal, dots per cell.

In article PMC8024022 one finds binding data, which are given here for 1 molecule.

These are yes or no findings as the source states them, for the method shown. Binding seen in cells or lysates may run through a third protein. Some results given as binding are weak or reduced against the parent protein; the word gives no strength.

B1: GAB1 (protein, UniProt Q13480 1-694)
chain: MSGGEVVCSGWLRKSPPEKKLKRYAWKRRWFVLRSGRLTGDPDVLEYYKNDHAKKPIRIIDLNLCQQVDAGLTFNKKEFENSYIFDINTIDRIFYLVADSEEEMNKWVRCICDICGFNPTEEDPVKPPGSSLQAPADLPLAINTAPPSTQADSSSATLPPPYQLINVPPHLETLGIQEDPQDYLLLINCQSKKPEPTRTHADSAKSTSSETDCNDNVPSHKNPASSQSKHGMNGFFQQQMIYDSPPSRAPSASVDSSLYNLPRSYSHDVLPKVSPSSTEADGELYVFNTPSGTSSVETQMRHVSISYDIPPTPGNTYQIPRTFPEGTLGQTSKLDTIPDIPPPRPPKPHPAHDRSPVETCSIPRTASDTDSSYCIPTAGMSPSRSNTISTVDLNKLRKDASSQDCYDIPRAFPSDRSSSLEGFHNHFKVKNVLTVGSVSSEELDENYVPMNPNSPPRQHSSSFTEPIQEANYVPMTPGTFDFSSFGMQVPPPAHMGFRSSPKTPPRRPVPVADCEPPPVDRNLKPDRKVKPAPLEIKPLPEWEELQAPVRSPITRSFARDSSRFPMSPRPDSVHSTTSSSDSHDSEENYVPMNPNLSSEDPNLFGSNSLDGGSSPMIKPKGDKQVEYLDLDLDSGKSTPPRKQKSSGSGSSVADERVDYVVVDQQKTLALKSTREAWTDGRQSTESETPAKSVK
Turning to B1, the values for the binding result in experiment [1] and in experiment [2] were “binds weakly” and “binds”, respectively.
